In US20180312608A1:
These are yes or no findings as the source states them, for the method shown. Some entries that bind do so weakly or less than the wild type.

Sequences of proteins named here, by UniProt entry; tags and fusion partners are left off. A change or cut given only in a name is not applied to a line headed by its entry. A line that says so, or that is headed by a name, gives the form on record, which may keep a tag or linker.
solubilized PHF (paired helical filament Tau) from human AD brain (P10636, form named): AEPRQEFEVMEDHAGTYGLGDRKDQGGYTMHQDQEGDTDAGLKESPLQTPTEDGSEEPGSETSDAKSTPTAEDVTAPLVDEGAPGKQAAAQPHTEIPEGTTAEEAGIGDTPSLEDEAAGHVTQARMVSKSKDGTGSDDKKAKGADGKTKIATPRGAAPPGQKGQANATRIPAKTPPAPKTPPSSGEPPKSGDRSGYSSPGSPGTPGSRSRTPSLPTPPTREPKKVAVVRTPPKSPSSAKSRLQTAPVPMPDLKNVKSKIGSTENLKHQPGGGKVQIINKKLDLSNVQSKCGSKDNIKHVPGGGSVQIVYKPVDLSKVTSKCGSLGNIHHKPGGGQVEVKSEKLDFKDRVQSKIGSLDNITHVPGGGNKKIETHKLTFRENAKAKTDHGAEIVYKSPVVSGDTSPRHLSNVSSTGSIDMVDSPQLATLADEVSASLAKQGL

Experiments:
[1] = molecular target: solubilized PHF (paired helical filament Tau) from human AD brain (human) (UniProt P10636); experiment: dot blot
[2] = molecular target: solubilized PHF (paired helical filament Tau) from human AD brain (human) (UniProt P10636); experiment: dot blot and ELISA
[3] = molecular target: sarkosyl soluble tau fraction from human AD brain (human) (UniProt P10636); experiment: dot blot of AD brain tau fractions
[4] = molecular target: solubilized PHF (paired helical filament Tau) from human AD brain (human) (UniProt P10636); experiment: dot blot of AD brain tau fractions
[5] = molecular target: solubilized PHF (paired helical filament Tau) from human AD brain (human) (UniProt P10636); experiment: confocal imaging, co-incubation in neuron cultures
[6] = molecular target: sarkosyl soluble tau fraction from human AD brain (human) (UniProt P10636); experiment: dot blot of AD brain tau fractions (FIG. 16, Panel A)
[7] = molecular target: solubilized PHF (paired helical filament Tau) from human AD brain (human) (UniProt P10636); experiment: as above
[8] = molecular target: solubilized PHF (paired helical filament Tau) from human AD brain (human) (UniProt P10636); experiment: confocal imaging of fluorescently labeled PHF and antibody (FIG. 10)
[9] = molecular target: sarkosyl soluble tau fraction from human AD brain (human) (UniProt P10636); experiment: ELISA, plate coated with sarkosyl soluble tau (1 µg/well), antibody dilutions
[10] = molecular target: solubilized PHF (paired helical filament Tau) from human AD brain (human) (UniProt P10636); experiment: confocal imaging of fluorescently labeled PHF and antibody in primary neuron cultures
[11] = molecular target: sarkosyl insoluble tau fraction from human AD brain (human) (UniProt P10636); experiment: dot blot of tau fractions from AD brain on nitrocellulose, antibody as primary [Panel A]
[12] = molecular target: solubilized PHF (paired helical filament Tau) from human AD brain (human) (UniProt P10636); experiment: as above
[13] = molecular target: sarkosyl insoluble tau fraction from human AD brain (human) (UniProt P10636); experiment: ELISA, plate coated with sarkosyl insoluble tau from AD brain (1 µg/well), serial antibody dilutions [Panel E]
[14] = molecular target: solubilized PHF (paired helical filament Tau) from human AD brain (human) (UniProt P10636); experiment: confocal imaging of fluorescently labeled PHF (10 µg/mL) and labeled Antibody 4E6G7 (1 µg/mL) on primary neurons, co-localization

Measured: binding

B1: Antibody 4E6G7 (antibody, V domains shown)
VH: VQLQQSGAELVQPGASVKLSCTASGFNIKDTSMHWVRQRPEQGLEWIGRIAPANGNTKYDPKFQGKATITTDTSSNTAYLQLSSLTSEDTAVYYCSGSGNYDWGQGTTLTVS
VL: DIQMNQSPSSLSASLGDTITISCHASQNINVWLSWYQQKPGNIPKLLIFEASTLYTGVPSRFSGSGSGTGFTLTISSLQPEDIATYYCQQGQSYPWTFGGGTKLEIKR
binds: [1] | [2] | [3] | [4] | [5] | [6] | [7] | [8] | [9] | [10] | [11] | [12] | [13] | [14]
